Test results taken from patent US12532661B2, “Compound and organic light emitting device comprising the same” (LG Chem, Ltd., priority 2020, dated 2026).

Experiment: Organic light emitting device evaluation with the compound as dopant of the light emitting layer
Conditions: for Driving voltage (V @ 10 mA/cm^2): device with compound as dopant (2:98 with host Compound D), current 10 mA/cm^2; for EQE (% @ 10 mA/cm^2): external quantum efficiency, device with compound as dopant; for Lifetime (hr) (T90 @ 500 nit): time for luminance to fall to 90% of initial luminance (500 nit); for EQE (% @ 10 mA/cm^2) / Lifetime (hr) (T90 @ 500 nit): 10 mA/cm^2

| SMILES | Driving voltage (V @ 10 mA/cm^2) [V] | EQE (% @ 10 mA/cm^2) [%] | Lifetime (hr) (T90 @ 500 nit) [h] |
| --- | --- | --- | --- |
| Cc1cccc(N(c2ccc3c4c5ccc6c(c5ccc4n(-c4ccccc4)c3c2)c2ccc(N(c3ccc4c5c7ccc8c(c7ccc5n(-c5ccccc5)c4c3)c3ccc(N(c4cccc(C)c4)c4cccc5c4oc4ccccc45)cc3n8-c3ccccc3)c3ccc4c5c7ccc8c(c7ccc5n(-c5ccccc5)c4c3)c3ccc(N(c4cccc(C)c4)c4cccc5c4oc4ccccc45)cc3n8-c3ccccc3)cc2n6-c2ccccc2)c2cccc3c2oc2ccccc23)c1 [Compound 1] | 4.68 | 8.76 | 220 |
| c1ccc(-n2c3ccccc3c3cc(-c4ccc(N(c5ccc6ccccc6c5)c5ccc6c7c8ccc9c(c8ccc7n(-c7ccccc7)c6c5)c5ccc(N(c6ccc7c8c%10ccc%11c(c%10ccc8n(-c8ccccc8)c7c6)c6ccc(N(c7ccc(-c8ccc%10c(c8)c8ccccc8n%10-c8ccccc8)cc7)c7ccc8ccccc8c7)cc6n%11-c6ccccc6)c6ccc7c8c%10ccc%11c(c%10ccc8n(-c8ccccc8)c7c6)c6ccc(N(c7ccc(-c8ccc%10c(c8)c8ccccc8n%10-c8ccccc8)cc7)c7ccc8ccccc8c7)cc6n%11-c6ccccc6)cc5n9-c5ccccc5)cc4)ccc32)cc1 [Compound 3] | 4.67 | 8.71 | 207 |
| Cc1cccc(N(c2ccc3c4c5ccc6c(c5ccc4n(-c4ccccc4)c3c2)c2ccc(-c3cc(-c4ccc5c7c8ccc9c(c8ccc7n(-c7ccccc7)c5c4)c4ccc(N(c5cccc(C)c5)c5cccc7c5oc5ccccc57)cc4n9-c4ccccc4)cc(-c4ccc5c7c8ccc9c(c8ccc7n(-c7ccccc7)c5c4)c4ccc(N(c5cccc(C)c5)c5cccc7c5oc5ccccc57)cc4n9-c4ccccc4)c3)cc2n6-c2ccccc2)c2cccc3c2oc2ccccc23)c1 [Compound 4] | 4.63 | 8.73 | 213 |
| CC(C)(C)c1ccc(N(c2ccc(C(C)(C)C)cc2)c2ccc3c4c5ccc6c(c5ccc4n(-c4ccccc4)c3c2)c2ccc(-c3cc(-c4ccc5c7c8ccc9c(c8ccc7n(-c7ccccc7)c5c4)c4ccc(N(c5ccc(C(C)(C)C)cc5)c5ccc(C(C)(C)C)cc5)cc4n9-c4ccccc4)cc(-c4ccc5c7c8ccc9c(c8ccc7n(-c7ccccc7)c5c4)c4ccc(N(c5ccc(C(C)(C)C)cc5)c5ccc(C(C)(C)C)cc5)cc4n9-c4ccccc4)c3)cc2n6-c2ccccc2)cc1 [Compound 5] | 4.69 | 8.69 | 219 |
| CC(C)(C)c1ccc(N(c2ccc(C(C)(C)C)cc2)c2ccc3c4c5ccc6c(c5ccc4n(-c4ccccc4)c3c2)c2ccc(N(c3ccc(C(C)(C)C)cc3)c3cc(N(c4ccc(C(C)(C)C)cc4)c4ccc5c7c8ccc9c(c8ccc7n(-c7ccccc7)c5c4)c4ccc(N(c5ccc(C(C)(C)C)cc5)c5ccc(C(C)(C)C)cc5)cc4n9-c4ccccc4)cc(N(c4ccc(C(C)(C)C)cc4)c4ccc5c7c8ccc9c(c8ccc7n(-c7ccccc7)c5c4)c4ccc(N(c5ccc(C(C)(C)C)cc5)c5ccc(C(C)(C)C)cc5)cc4n9-c4ccccc4)c3)cc2n6-c2ccccc2)cc1 [Compound 12] | 4.59 | 8.64 | 218 |
| Cc1cccc(N(c2ccc3c4c5ccc6c(c5ccc4n(-c4ccccc4)c3c2)c2ccc(Oc3cc(Oc4ccc5c7c8ccc9c(c8ccc7n(-c7ccccc7)c5c4)c4ccc(N(c5cccc(C)c5)c5cccc7c5oc5ccccc57)cc4n9-c4ccccc4)cc(Oc4ccc5c7c8ccc9c(c8ccc7n(-c7ccccc7)c5c4)c4ccc(N(c5cccc(C)c5)c5cccc7c5oc5ccccc57)cc4n9-c4ccccc4)c3)cc2n6-c2ccccc2)c2cccc3c2oc2ccccc23)c1 [Compound 14] | 4.63 | 8.70 | 215 |
| Cc1cccc(N(c2ccc3c4c5ccc6c(c5ccc4n(-c4ccccc4)c3c2)c2ccc(Oc3cccc(-c4cc(-c5cccc(Oc7ccc8c9c%10ccc%11c(c%10ccc9n(-c9ccccc9)c8c7)c7ccc(N(c8cccc(C)c8)c8cccc9c8oc8ccccc89)cc7n%11-c7ccccc7)c5)cc(-c5cccc(Oc7ccc8c9c%10ccc%11c(c%10ccc9n(-c9ccccc9)c8c7)c7ccc(N(c8cccc(C)c8)c8cccc9c8oc8ccccc89)cc7n%11-c7ccccc7)c5)c4)c3)cc2n6-c2ccccc2)c2cccc3c2oc2ccccc23)c1 [Compound 15] | 4.68 | 8.75 | 222 |
| Cc1cccc(N(c2ccc3c4c5ccc6c(c5ccc4n(-c4ccccc4)c3c2)c2ccc(Oc3ccc(-c4cc(-c5ccc(Oc7ccc8c9c%10ccc%11c(c%10ccc9n(-c9ccccc9)c8c7)c7ccc(N(c8cccc(C)c8)c8cccc9c8oc8ccccc89)cc7n%11-c7ccccc7)cc5)cc(-c5ccc(Oc7ccc8c9c%10ccc%11c(c%10ccc9n(-c9ccccc9)c8c7)c7ccc(N(c8cccc(C)c8)c8cccc9c8oc8ccccc89)cc7n%11-c7ccccc7)cc5)c4)cc3)cc2n6-c2ccccc2)c2cccc3c2oc2ccccc23)c1 [Compound 16] | 4.69 | 8.71 | 219 |
| Cc1cccc(N(c2ccc3c(c2)c2c4ccc5c(c4ccc2n3-c2ccccc2)c2cc(N(c3ccc4c(c3)c3c6ccc7c(c6ccc3n4-c3ccccc3)c3cc(N(c4cccc(C)c4)c4cccc6c4oc4ccccc46)ccc3n7-c3ccccc3)c3ccc4c(c3)c3c6ccc7c(c6ccc3n4-c3ccccc3)c3cc(N(c4cccc(C)c4)c4cccc6c4oc4ccccc46)ccc3n7-c3ccccc3)ccc2n5-c2ccccc2)c2cccc3c2oc2ccccc23)c1 [Compound 17] | 4.58 | 8.74 | 224 |
| Cc1cccc(N(c2cccc3c2oc2ccccc23)c2cccc3c2c2c4ccc5c(c4ccc2n3-c2ccccc2)c2c(N(c3cccc4c3c3c6ccc7c(c6ccc3n4-c3ccccc3)c3c(N(c4cccc(C)c4)c4cccc6c4oc4ccccc46)cccc3n7-c3ccccc3)c3cccc4c3c3c6ccc7c(c6ccc3n4-c3ccccc3)c3c(N(c4cccc(C)c4)c4cccc6c4oc4ccccc46)cccc3n7-c3ccccc3)cccc2n5-c2ccccc2)c1 [Compound 19] | 4.59 | 8.79 | 219 |
| Cc1cccc(N(c2ccc3c4c5ccc6c(c5ccc4n(-c4ccccc4)c3c2)c2ccc(N(c3cccc(C)c3)c3cccc4c3oc3ccccc34)cc2n6-c2ccccc2)c2cccc3c2oc2ccccc23)c1 [Compound F, reference compound] | 4.70 | 6.87 | 58 |
| CC(C)(C)c1ccc(N(c2ccc(C(C)(C)C)cc2)c2ccc3c4c5ccc6c(c5ccc4n(-c4ccccc4)c3c2)c2ccc(N(c3ccc(C(C)(C)C)cc3)c3ccc(C(C)(C)C)cc3)cc2n6-c2ccccc2)cc1 [Compound G, reference compound] | 4.68 | 7.11 | 67 |
| c1ccc(-n2c3ccccc3c3cc(-c4ccc(N(c5ccc6ccccc6c5)c5ccc6c7c8ccc9c(c8ccc7n(-c7ccccc7)c6c5)c5ccc(N(c6ccc(-c7ccc8c(c7)c7ccccc7n8-c7ccccc7)cc6)c6ccc7ccccc7c6)cc5n9-c5ccccc5)cc4)ccc32)cc1 [Compound H, reference compound] | 4.66 | 7.11 | 67 |
